Source: publication PMC12690528
No constants are given. Whether binding was seen depends on the method and setting. In cells and extracts the contact can be indirect. Some results given as binding are weak or reduced against the parent protein; the word gives no strength.

Chains of the proteins cited; added tags and fusions are not shown.
UniProt P15409: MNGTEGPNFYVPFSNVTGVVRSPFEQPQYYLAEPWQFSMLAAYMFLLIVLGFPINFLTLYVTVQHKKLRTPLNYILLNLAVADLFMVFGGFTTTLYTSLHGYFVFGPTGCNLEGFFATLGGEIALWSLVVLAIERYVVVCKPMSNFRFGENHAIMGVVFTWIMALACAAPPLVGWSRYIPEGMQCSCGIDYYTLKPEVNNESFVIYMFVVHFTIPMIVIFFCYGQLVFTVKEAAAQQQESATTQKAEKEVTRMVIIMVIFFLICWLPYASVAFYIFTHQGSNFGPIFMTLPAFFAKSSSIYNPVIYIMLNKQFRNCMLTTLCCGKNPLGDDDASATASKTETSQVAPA
UniProt P35279: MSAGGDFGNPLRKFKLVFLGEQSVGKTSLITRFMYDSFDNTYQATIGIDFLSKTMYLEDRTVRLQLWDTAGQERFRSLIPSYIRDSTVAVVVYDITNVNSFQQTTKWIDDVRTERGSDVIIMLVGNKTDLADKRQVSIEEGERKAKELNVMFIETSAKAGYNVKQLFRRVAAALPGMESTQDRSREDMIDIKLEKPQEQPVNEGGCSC

B1: phosducin (Pdc) (protein, UniProt Q9QW08 1-244)
chain: MEEAASQSLEEDFEGQATHTGPKGVINDWRKFKLESEDGDSIPPSKKEILRQMSSPQSRDDSKERMSRKMSIQEYELIHQDKEDESCLRKYRRQCMQDMHQKLSFGPRYGFVYELETGEQFLETIEKEQKVTTIVVNIYEDGVRGCDALNSSLACLAVEYPMVKFCKIKASNTGAGDRFSTDVLPTLLVYKGGELISNFISVAEQFAEEFFAVDVESFLNEYGLLPEREIHDLEQTNMEDEDIE

Target: rhodopsin (Rho) (mouse (endogenous in WT mouse retina)) (UniProt P15409)
Assay: co-IP; WT mouse retina lysate in T-PER buffer; Rho captured on 1D4 antibody-conjugated Sepharose beads, 12-16 h at 4°C; washed in PBS + 0.1% Tween-20; western blot

| Molecule | binding |
| --- | --- |
| Rab6a (from UniProt P35279 1-208) | binds |
| B1 | no binding |
